{"source": "PubChem BioAssay AID1159584 (Peter MacCallum Cancer Centre, 2016)", "test": "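Genes that CDH1-null MCF10A cells selectively depend on to survive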 (primary screen)", "cells": "human MCF10A breast epithelial cells, parental and CDH1-null", "reagents": "siRNA against human genes", "read-out": "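Cell viability by CellTiter-Glo ATP luminescence, each line scaled to the mean of mock wells across plates, then CDH1-null over parental ratio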", "scale": "CDH1-null / parental viability ratio: higher = CDH1-null cells survive relatively better than parental; CDH1-null viability vs mock: higher = more viable CDH1-null cells", "units": "CDH1-null viability vs mock in fraction of mock", "note": "The deposit covers about 18,000 reagents; this is a random part of them. Further read-outs or replicates are left out here. No sequences are given here. Not stated in the record: the amount of reagent, the time to read-out."}
{"gene": "SH2D1A (SH2 domain containing 1A)", "PubChem SID": "SID135621945", "CDH1-null / parental viability ratio": 0.95, "CDH1-null viability vs mock": 0.78}
{"gene": "TRIT1 (tRNA isopentenyltransferase 1)", "PubChem SID": "SID134322667", "CDH1-null / parental viability ratio": 1.05, "CDH1-null viability vs mock": 0.91}
{"gene": "OGA (O-GlcNAcase)", "PubChem SID": "SID152155699", "CDH1-null / parental viability ratio": 1.16, "CDH1-null viability vs mock": 0.85}
{"gene": "PIGF (phosphatidylinositol glycan anchor biosynthesis class F)", "PubChem SID": "SID152147913", "CDH1-null / parental viability ratio": 1.16, "CDH1-null viability vs mock": 0.96}
{"gene": "VWA2 (von Willebrand factor A domain containing 2)", "PubChem SID": "SID134329268", "CDH1-null / parental viability ratio": 0.92, "CDH1-null viability vs mock": 0.7}
{"gene": "KIAA0586", "PubChem SID": "SID152156501", "CDH1-null / parental viability ratio": 0.88, "CDH1-null viability vs mock": 0.46}
{"gene": "KATNB1 (katanin regulatory subunit B1)", "PubChem SID": "SID152153311", "CDH1-null / parental viability ratio": 1, "CDH1-null viability vs mock": 0.94}
{"gene": "NGF (nerve growth factor)", "PubChem SID": "SID135623805", "CDH1-null / parental viability ratio": 1.03, "CDH1-null viability vs mock": 0.79}
{"gene": "KRTAP3-1 (keratin associated protein 3-1)", "PubChem SID": "SID134317738", "CDH1-null / parental viability ratio": 1.67, "CDH1-null viability vs mock": 0.72}
{"gene": "F9 (coagulation factor IX)", "PubChem SID": "SID134311299", "CDH1-null / parental viability ratio": 1.07, "CDH1-null viability vs mock": 0.92}
{"gene": "COQ10B (coenzyme Q10B)", "PubChem SID": "SID152150320", "CDH1-null / parental viability ratio": 0.96, "CDH1-null viability vs mock": 0.73}
{"gene": "TIMP1 (TIMP metallopeptidase inhibitor 1)", "PubChem SID": "SID135622196", "CDH1-null / parental viability ratio": 1.01, "CDH1-null viability vs mock": 0.82}
{"gene": "THOC7 (THO complex subunit 7)", "PubChem SID": "SID152151387", "CDH1-null / parental viability ratio": 0.81, "CDH1-null viability vs mock": 0.76}
{"gene": "LENEP (lens epithelial protein)", "PubChem SID": "SID152155909", "CDH1-null / parental viability ratio": 1.24, "CDH1-null viability vs mock": 0.88}
{"gene": "KRTAP22-1 (keratin associated protein 22-1)", "PubChem SID": "SID134322511", "CDH1-null / parental viability ratio": 1.32, "CDH1-null viability vs mock": 1}

Continued, starting with the last 2 of the part before.
{"gene": "LENEP (lens epithelial protein)", "PubChem SID": "SID152155909", "CDH1-null / parental viability ratio": 1.24, "CDH1-null viability vs mock": 0.88}
{"gene": "KRTAP22-1 (keratin associated protein 22-1)", "PubChem SID": "SID134322511", "CDH1-null / parental viability ratio": 1.32, "CDH1-null viability vs mock": 1}
{"gene": "KCNG3", "PubChem SID": "SID134311648", "CDH1-null / parental viability ratio": 1.22, "CDH1-null viability vs mock": 0.96}
{"gene": "KRT35 (keratin 35)", "PubChem SID": "SID135622105", "CDH1-null / parental viability ratio": 0.89, "CDH1-null viability vs mock": 0.73}
{"gene": "NLRP14 (NLR family pyrin domain containing 14)", "PubChem SID": "SID152151464", "CDH1-null / parental viability ratio": 1.01, "CDH1-null viability vs mock": 0.87}
{"gene": "ATP5MF (ATP synthase membrane subunit f)", "PubChem SID": "SID135622370", "CDH1-null / parental viability ratio": 0.79, "CDH1-null viability vs mock": 0.52}
{"gene": "FER1L6 (fer-1 like family member 6)", "PubChem SID": "SID135625557", "CDH1-null / parental viability ratio": 1.1, "CDH1-null viability vs mock": 0.91}
{"gene": "ZNF529 (zinc finger protein 529)", "PubChem SID": "SID152147134", "CDH1-null / parental viability ratio": 1.22, "CDH1-null viability vs mock": 0.83}
{"gene": "HDAC1 (histone deacetylase 1)", "PubChem SID": "SID134309924", "CDH1-null / parental viability ratio": 1, "CDH1-null viability vs mock": 1}
{"gene": "TAMM41", "PubChem SID": "SID152156446", "CDH1-null / parental viability ratio": 1.13, "CDH1-null viability vs mock": 1.02}
{"gene": "TPGS2 (tubulin polyglutamylase complex subunit 2)", "PubChem SID": "SID152155089", "CDH1-null / parental viability ratio": 0.89, "CDH1-null viability vs mock": 0.56}
